Our source for the binding values is US20250270319A1.

To fix the notation:
B1: anti-CD33 6C7 chimeric antibody (antibody, V domains shown)
VH: EVKLEESGGGLVQPGGSMKLSCVGSGFTFSNYCMNWVRQSPEKGLEWVAEIRLKSNNYVTNYVESVKGRFTISRDDSKSRVYLQMNNLRGEDTGFYYCTRDGYYVPFAYWGQGTLVTVSA
VL: QLVLTQSSSASFSLGASAKLTCTLSSQHSTYTIEWYQQQPLKPPKYVMELKKDGSHSTGDGIPDRFSGSSSGADRYLSISNIQPEDEAIYICGVGDTIKEQFVYVFGGGTKVTVL
B2: anti-CD33 antibody 6C7H47 (antibody, V domains shown)
VH: EVQLVESGGGLVQPGGSLRLSCAGSGFTFSNYEMNWVRQAPGKGLEWVAEIRLKSNNYVTNYAASVKGRFTISRDDSKNSVYLQMNSLKTEDTGVYYCTRAGYYVPFAYWGQGTLVTVSS
VL: QLMLTQSPSASASLGASVKLTCTLSSQHSTYTIEWYQQQPGKGPRYLMELKKEGSHSTGDGIPDRFSGSSSGAERYLTISSLQSEDEADYYCGVGHTIKEQFVYEFGGGTKLTVL
B3: anti-CD33 antibody 6C7H54 (antibody, IgG1, V domains shown)
VH: B2 VH
VL: B2 VL with E105V
B4: anti-CD33 antibody 6C7H38 (antibody, V domains shown)
VH: B2 VH with G24A, N31E, E33A, N35L, A49G, A108T
VL: B2 VL with L2P, H96L, E105V
B5: anti-CD33 antibody 6C7H36 (antibody, V domains shown)
VH: B2 VH with G24A, N31E, E33A, N35L, A49G, A108T
VL: B2 VL
B6: anti-CD33 antibody 6C7H5 (antibody, V domains shown)
VH: B2 VH with E33C, A101D
VL: B2 VL with M3V, G41E, E53D, H96D, E105V
B7: anti-CD33 antibody 6C7H48 (antibody, V domains shown)
VH: B2 VH
VL: B2 VL with L2P, H96L, E105V
B8: anti-CD33 antibody 6C7H52 (antibody, V domains shown)
VH: B2 VH with G24A, N31E, E33A, N35L, A49G
VL: B2 VL with E105V
B9: anti-CD33 antibody 6C7H37 (antibody, V domains shown)
VH: B2 VH with G24A, N31E, E33A, N35L, A49G, A108T
VL: B2 VL with E105V
B10: anti-CD33 antibody 6C7H46 (antibody, V domains shown)
VH: B2 VH with G24A, N31E, E33A, N35L, A49G
VL: B2 VL with L2P, H96L, E105V
B11: anti-CD33 antibody 6C7H41 (antibody, V domains shown)
VH: B2 VH with G24A, N31E, E33D, N35L, A49G, S77T
VL: B2 VL with E105V

Changes are numbered by the printed parent chain. Results are given in words; binding and its absence hold for the method and conditions named. A result given as binding can be weak or reduced; the word gives no strength.

For the first experiment, the target named is recombinant cynomolgus CD33 protein (NovoProtein) (cynomolgus). The experiment is described as follows: ELISA, plate coated with recombinant CD33.
With B1, the binding entry was “binds”. The same measure, in the same setting: next, B2: “binds”; B3: “binds”; B4: “binds”. Consider B5, for which the binding entry is listed as “binds”. The same measure, in the same setting: to B6 belongs “binds”; to B7, “binds”; to B8, “binds”. On the same count and under the same terms, next, B9: “binds”.

A further experiment has the same target. The experiment is described as follows: ELISA, plate coated with recombinant cynomolgus CD33, HRP anti-human IgG, TMB, A650. (In general: ELISA stands for enzyme-linked immunosorbent assay.)
As to B1, the binding result was “binds”.

B2: the binding result was “binds”.

Take B3: the binding result is given as “binds”. On the same count and under the same terms, next, B5: “binds”; B6: “binds”; B7: “binds”. As to B8, the binding entry was “binds”.

Consider B10, for which the binding result was “binds”. On the same count and under the same terms, next, B11: “binds”.
